# Test results taken from the supplement of paper PMC8728848.
# This is one part of the list.
# What was measured:
# Experiment in all cases: glycan array binding signal (z-score within array); higher = stronger binding
# Conditions in all cases: glycan notation: IUPAC condensed, linker removed
# [1] = biological target: Neu5Ac(a2-6)Gal(b1-4)GlcNAc6S
# In short: (§1)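 From the Consortium for Functional Glycomics database, 3228 arrays were curated, keeping only those whose protein sequence was available. Binding is given as a within-array Z-score averaged across arrays sharing a protein sequence and across linkers. Negative Z-scores can be read as non-binding.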
# Neu5Ac(a2-6)GalNAc = biological target: Neu5Ac(a2-6)GalNAc
# In short: as §1
# [2] = biological target: Neu5Ac(a2-6)GalNAc(b1-4)GlcNAc
# In short: as §1
# [3] = biological target: Neu5Ac(a2-6)GalNAc(b1-4)GlcNAc6S
# In short: as §1
# [4] = biological target: Neu5Ac(a2-6)GlcNAc(b1-4)GlcNAc
# In short: as §1
# [5] = biological target: Neu5Ac(a2-6)GlcNAc(b1-4)GlcNAc(b1-4)GlcNAc
# In short: as §1
# Neu5Ac(a2-8)Neu5Ac = biological target: Neu5Ac(a2-8)Neu5Ac
# In short: as §1
# [6] = biological target: Neu5Ac(a2-8)Neu5Ac(a2-3)Gal(b1-3)GalNAc(b1-4)[Neu5Ac(a2-3)]Gal(b1-4)Glc
# In short: as §1
# [7] = biological target: Neu5Ac(a2-8)Neu5Ac(a2-3)Gal(b1-3)GalNAc(b1-4)[Neu5Ac(a2-8)Neu5Ac(a2-3)]Gal(b1-4)Glc
# In short: as §1
# [8] = biological target: Neu5Ac(a2-8)Neu5Ac(a2-3)Gal(b1-4)Glc
# In short: as §1
# [9] = biological target: Neu5Ac(a2-8)Neu5Ac(a2-3)Gal(b1-4)GlcNAc
# In short: as §1
# [10] = biological target: Neu5Ac(a2-8)Neu5Ac(a2-3)[Gal(b1-3)GalNAc(b1-4)]Gal(b1-4)Glc
# In short: as §1
# [11] = biological target: Neu5Ac(a2-8)Neu5Ac(a2-3)[GalNAc(b1-4)]Gal(b1-4)Glc
# In short: as §1
# [12] = biological target: Neu5Ac(a2-8)Neu5Ac(a2-8)Neu5Ac
# In short: as §1
# [13] = biological target: Neu5Ac(a2-8)Neu5Ac(a2-8)Neu5Ac(a2-3)Gal(b1-4)Glc
# In short: as §1
# [14] = biological target: Neu5Ac(a2-8)Neu5Ac(a2-8)Neu5Ac(a2-3)[Gal(b1-3)GalNAc(b1-4)]Gal(b1-4)Glc
# In short: as §1
# [15] = biological target: Neu5Ac(a2-8)Neu5Ac(a2-8)Neu5Ac(a2-3)[GalNAc(b1-4)]Gal(b1-4)Glc
# In short: as §1
# [16] = biological target: Neu5Ac(a2-8)Neu5Ac(a2-8)Neu5Ac(a2-8)Neu5Ac(a2-3)[GalNAc(b1-4)]Gal(b1-4)Glc
# In short: as §1
# [17] = biological target: Neu5Ac(a2-8)Neu5Gc(a2-3)Gal(b1-4)GlcNAc
# In short: as §1
# [18] = biological target: Neu5Ac(b2-6)Gal(b1-4)GlcNAc
# In short: as §1
# Neu5Ac(b2-6)GalNAc = biological target: Neu5Ac(b2-6)GalNAc
# In short: as §1
# [19] = biological target: Neu5Ac9Ac(a2-3)Gal(b1-3)GlcNAc
# In short: as §1
# [20] = biological target: Neu5Ac9Ac(a2-3)Gal(b1-4)GlcNAc
# In short: as §1
# [21] = biological target: Neu5Ac9Ac(a2-6)Gal(b1-4)GlcNAc
# In short: as §1
# [22] = biological target: Neu5Gc(a2-3)Gal(b1-3)GlcNAc
# In short: as §1
# [23] = biological target: Neu5Gc(a2-3)Gal(b1-3)[Fuc(a1-4)]GlcNAc
# In short: as §1
# Neu5Gc(a2-3)Gal(b1-4)Glc = biological target: Neu5Gc(a2-3)Gal(b1-4)Glc
# In short: as §1
# [24] = biological target: Neu5Gc(a2-3)Gal(b1-4)GlcNAc
# In short: as §1
# [25] = biological target: Neu5Gc(a2-3)Gal(b1-4)GlcNAc(b1-3)Gal(b1-4)GlcNAc(b1-2)Man(a1-3)[Neu5Gc(a2-3)Gal(b1-4)GlcNAc(b1-3)Gal(b1-4)GlcNAc(b1-2)Man(a1-6)]Man(b1-4)GlcNAc(b1-4)GlcNAc
# In short: as §1
# [26] = biological target: Neu5Gc(a2-3)Gal(b1-4)[Fuc(a1-3)]GlcNAc
# In short: as §1
# [27] = biological target: Neu5Gc(a2-6)Gal(b1-4)GlcNAc
# In short: as §1
# Neu5Gc(a2-6)GalNAc = biological target: Neu5Gc(a2-6)GalNAc
# In short: as §1
# [28] = biological target: Neu5Gc(a2-8)Neu5Ac(a2-3)Gal(b1-4)GlcNAc
# In short: as §1
# [29] = biological target: Neu5Gc(a2-8)Neu5Gc(a2-3)Gal(b1-4)GlcNAc
# In short: as §1
# [30] = biological target: Neu5Gc(a2-8)Neu5Gc(a2-3)Gal(b1-4)GlcNAc(b1-3)Gal(b1-4)GlcNAc
# In short: as §1
# [31] = biological target: Neu5Gc(a2-8)Neu5Gc(a2-6)Gal(b1-4)GlcNAc
# In short: as §1
# [32] = biological target: Neu5Gc(b2-6)Gal(b1-4)GlcNAc
# In short: as §1
binder,measurement,setting,value
"BabA (Helicobacter pylori), O52269_HELPY (protein) AEDDGFYMSAGYQIGEAAQMVKNTKGIQELSDNYENLSNLLTRYSTLNTLIKLSADPSAVNAARENLGASAKNLIGDTKNSPAYQAVLLAINAAVGFWNVVGYVTQCGGNANGQKSTSSTTIFNNEPGYRSTSITCSLNGHMPGYYGPMSIENFKKLNEAYQILQTALKNGLPALKENNGTVNVTYSYTCSGEGNDNCSLQTTGVTNQNNGTKTETQTIDGKSVTTTISSKVVDSQ",glycan array binding signal (z-score),[1],-0.106
same,glycan array binding signal (z-score),Neu5Ac(a2-6)GalNAc,0.571
same,glycan array binding signal (z-score),[2],-0.673
same,glycan array binding signal (z-score),[3],-0.637
same,glycan array binding signal (z-score),[4],-0.284
same,glycan array binding signal (z-score),[5],0.529
same,glycan array binding signal (z-score),Neu5Ac(a2-8)Neu5Ac,-0.103
same,glycan array binding signal (z-score),[6],-0.518
same,glycan array binding signal (z-score),[7],0.235
same,glycan array binding signal (z-score),[8],0.012
same,glycan array binding signal (z-score),[9],-0.8
same,glycan array binding signal (z-score),[10],-0.246
same,glycan array binding signal (z-score),[11],-0.258
same,glycan array binding signal (z-score),[12],-0.163
same,glycan array binding signal (z-score),[13],-0.593
same,glycan array binding signal (z-score),[14],0.344
same,glycan array binding signal (z-score),[15],-0.552
same,glycan array binding signal (z-score),[16],-0.397
same,glycan array binding signal (z-score),[17],-0.845
same,glycan array binding signal (z-score),[18],-0.719
same,glycan array binding signal (z-score),Neu5Ac(b2-6)GalNAc,-0.626
same,glycan array binding signal (z-score),[19],-0.068
same,glycan array binding signal (z-score),[20],0.252
same,glycan array binding signal (z-score),[21],-0.224
same,glycan array binding signal (z-score),[22],0.13
same,glycan array binding signal (z-score),[23],-0.638
same,glycan array binding signal (z-score),Neu5Gc(a2-3)Gal(b1-4)Glc,-0.204
same,glycan array binding signal (z-score),[24],0.094
same,glycan array binding signal (z-score),[25],1.27
same,glycan array binding signal (z-score),[26],-0.235
same,glycan array binding signal (z-score),[27],-0.144
same,glycan array binding signal (z-score),Neu5Gc(a2-6)GalNAc,0.164
same,glycan array binding signal (z-score),[28],-0.773
same,glycan array binding signal (z-score),[29],-0.709
same,glycan array binding signal (z-score),[30],-0.736
same,glycan array binding signal (z-score),[31],-0.546
same,glycan array binding signal (z-score),[32],-0.522

# Two entries from above, with bars between the fields:
binder | measurement | setting | value
BabA (Helicobacter pylori), O52269_HELPY (protein) AEDDGFYMSAGYQIGEAAQMVKNTKGIQELSDNYENLSNLLTRYSTLNTLIKLSADPSAVNAARENLGASAKNLIGDTKNSPAYQAVLLAINAAVGFWNVVGYVTQCGGNANGQKSTSSTTIFNNEPGYRSTSITCSLNGHMPGYYGPMSIENFKKLNEAYQILQTALKNGLPALKENNGTVNVTYSYTCSGEGNDNCSLQTTGVTNQNNGTKTETQTIDGKSVTTTISSKVVDSQ | glycan array binding signal (z-score) | Neu5Ac(b2-6)GalNAc | -0.626
same | glycan array binding signal (z-score) | [20] | 0.252
